Laboratory results from ChEMBL document CHEMBL1157379, “Transcriptional response of Candida parapsilosis following exposure to farnesol” (2007).
This continues a long series; more values of the same kind are listed elsewhere.

Columns and labels:
Type in all cases: functional
Candida parapsilosis [1] = assay: Increase in CGD gene ortholog accession number orf19.2564 expression in Candida parapsilosis CLIB214 at 50 uM after 2 hrs by microarray based transcriptional profiling relative to control
Candida parapsilosis [2] = assay: Increase in CGD gene ortholog accession number orf19.6442 expression in Candida parapsilosis CLIB214 at 50 uM after 2 hrs by microarray based transcriptional profiling relative to control
Candida parapsilosis [3] = assay: Increase in CGD gene ortholog accession number orf19.1754 expression in Candida parapsilosis CLIB214 at 50 uM after 2 hrs by microarray based transcriptional profiling relative to control
Candida parapsilosis [4] = assay: Decrease in CGD gene ortholog accession number orf19.1676 expression in Candida parapsilosis CLIB214 at 50 uM after 2 hrs by microarray based transcriptional profiling relative to control
Candida parapsilosis [5] = assay: Decrease in CGD gene ortholog accession number orf19.7604 expression in Candida parapsilosis CLIB214 at 50 uM after 2 hrs by microarray based transcriptional profiling relative to control
Candida parapsilosis [6] = assay: Decrease in CGD gene ortholog accession number orf19.6134 expression in Candida parapsilosis CLIB214 at 50 uM after 2 hrs by microarray based transcriptional profiling relative to control
Candida parapsilosis [7] = assay: Increase in CGD gene ortholog accession number orf19.6578 expression in Candida parapsilosis CLIB214 at 50 uM after 2 hrs by microarray based transcriptional profiling relative to control
Candida parapsilosis [8] = assay: Increase in CGD gene ortholog accession number orf19.3100 expression in Candida parapsilosis CLIB214 at 50 uM after 2 hrs by microarray based transcriptional profiling relative to control
Candida parapsilosis [9] = assay: Decrease in PIN4 gene expression in Candida parapsilosis CLIB214 at 50 uM after 2 hrs by microarray based transcriptional profiling relative to control
Candida parapsilosis [10] = assay: Decrease in CGD gene ortholog accession number orf19.804 (SGD ortholog YPR011C) expression in Candida parapsilosis CLIB214 at 50 uM after 2 hrs by microarray based transcriptional profiling relative to control
Candida parapsilosis [11] = assay: Increase in CGD gene ortholog accession number orf19.2335 expression in Candida parapsilosis CLIB214 at 50 uM after 2 hrs by microarray based transcriptional profiling relative to control
Candida parapsilosis [12] = assay: Increase in CGD gene ortholog accession number orf19.1814 expression in Candida parapsilosis CLIB214 at 50 uM after 2 hrs by microarray based transcriptional profiling relative to control
Candida parapsilosis [13] = assay: Increase in CGD gene ortholog accession number orf19.7261 expression in Candida parapsilosis CLIB214 at 50 uM after 2 hrs by microarray based transcriptional profiling relative to control
Candida parapsilosis [14] = assay: Increase in BRE1 gene expression in Candida parapsilosis CLIB214 at 50 uM after 2 hrs by microarray based transcriptional profiling relative to control
Candida parapsilosis [15] = assay: Increase in CGD gene ortholog accession number orf19.2998 expression in Candida parapsilosis CLIB214 at 50 uM after 2 hrs by microarray based transcriptional profiling relative to control
Candida parapsilosis [16] = assay: Decrease in GSG1 gene expression in Candida parapsilosis CLIB214 at 50 uM after 2 hrs by microarray based transcriptional profiling relative to control
Candida parapsilosis [17] = assay: Decrease in CGD gene ortholog accession number orf19.7149 expression in Candida parapsilosis CLIB214 at 50 uM after 2 hrs by microarray based transcriptional profiling relative to control
Candida parapsilosis [18] = assay: Decrease in CGD gene ortholog accession number orf19.1850 expression in Candida parapsilosis CLIB214 at 50 uM after 2 hrs by microarray based transcriptional profiling relative to control
Candida parapsilosis [19] = assay: Increase in CGD gene ortholog accession number orf19.6524 expression in Candida parapsilosis CLIB214 at 50 uM after 2 hrs by microarray based transcriptional profiling relative to control
Candida parapsilosis [20] = assay: Decrease in CGD gene ortholog accession number orf19.5274 expression in Candida parapsilosis CLIB214 at 50 uM after 2 hrs by microarray based transcriptional profiling relative to control
Candida parapsilosis [21] = assay: Decrease in RIM13 gene expression in Candida parapsilosis CLIB214 at 50 uM after 2 hrs by microarray based transcriptional profiling relative to control
Candida parapsilosis [22] = assay: Increase in CGD gene ortholog accession number orf19.1429 expression in Candida parapsilosis CLIB214 at 50 uM after 2 hrs by microarray based transcriptional profiling relative to control
Candida parapsilosis [23] = assay: Increase in CGD gene ortholog accession number orf19.5598 expression in Candida parapsilosis CLIB214 at 50 uM after 2 hrs by microarray based transcriptional profiling relative to control
Candida parapsilosis [24] = assay: Increase in CGD gene ortholog accession number orf19.2324 expression in Candida parapsilosis CLIB214 at 50 uM after 2 hrs by microarray based transcriptional profiling relative to control
Candida parapsilosis [25] = assay: Decrease in CGD gene ortholog accession number orf19.2761 expression in Candida parapsilosis CLIB214 at 50 uM after 2 hrs by microarray based transcriptional profiling relative to control
Candida parapsilosis [26] = assay: Decrease in CGD gene ortholog accession number orf19.337 expression in Candida parapsilosis CLIB214 at 50 uM after 2 hrs by microarray based transcriptional profiling relative to control
Candida parapsilosis [27] = assay: Decrease in CGD gene ortholog accession number orf19.6294 expression in Candida parapsilosis CLIB214 at 50 uM after 2 hrs by microarray based transcriptional profiling relative to control
Candida parapsilosis [28] = assay: Decrease in CGD gene ortholog accession number orf19.6621 expression in Candida parapsilosis CLIB214 at 50 uM after 2 hrs by microarray based transcriptional profiling relative to control
Candida parapsilosis [29] = assay: Decrease in GenBank accession number XP_460297.1 expression in Candida parapsilosis CLIB214 at 50 uM after 2 hrs by microarray based transcriptional profiling relative to control
Candida parapsilosis [30] = assay: Decrease in CGD gene ortholog accession number orf19.7521 expression in Candida parapsilosis CLIB214 at 50 uM after 2 hrs by microarray based transcriptional profiling relative to control
Candida parapsilosis [31] = assay: Increase in CGD gene ortholog accession number orf19.182 expression in Candida parapsilosis CLIB214 at 50 uM after 2 hrs by microarray based transcriptional profiling relative to control
Candida parapsilosis [32] = assay: Increase in CGD gene ortholog accession number orf19.6233 expression in Candida parapsilosis CLIB214 at 50 uM after 2 hrs by microarray based transcriptional profiling relative to control
Candida parapsilosis [33] = assay: Decrease in CGD gene ortholog accession number orf19.728 expression in Candida parapsilosis CLIB214 at 50 uM after 2 hrs by microarray based transcriptional profiling relative to control
Candida parapsilosis [34] = assay: Decrease in CGD gene ortholog accession number orf19.3951 expression in Candida parapsilosis CLIB214 at 50 uM after 2 hrs by microarray based transcriptional profiling relative to control
Candida parapsilosis [35] = assay: Increase in CGD gene ortholog accession number orf19.7256 expression in Candida parapsilosis CLIB214 at 50 uM after 2 hrs by microarray based transcriptional profiling relative to control

In the case of `CC(C)=CCC/C(C)=C/CC/C(C)=C/CO` [FARNESOL], the “fold change (FC)” value (Candida parapsilosis [1]) was 2.39, the “fold change (FC)” value (Candida parapsilosis [2]) was 1.58 and the “fold change (FC)” value (Candida parapsilosis [3]) was 2.04. The “fold change (FC)” value (Candida parapsilosis [4]) was 1.98, the “fold change (FC)” value (Candida parapsilosis [5]) was 2.03 and the “fold change (FC)” value (Candida parapsilosis [6]) was 2.15. For the same molecule, the “fold change (FC)” value (Candida parapsilosis [7]) was 1.76, the “fold change (FC)” value (Candida parapsilosis [8]) was 1.57 and the “fold change (FC)” value (Candida parapsilosis [9]) was 1.66. The “fold change (FC)” value (Candida parapsilosis [10]) was 1.66, the “fold change (FC)” value (Candida parapsilosis [11]) was 1.86 and the “fold change (FC)” value (Candida parapsilosis [12]) was 1.86. For the same molecule, the “fold change (FC)” value (Candida parapsilosis [13]) was 1.84, the “fold change (FC)” value (Candida parapsilosis [14]) was 1.84 and the “fold change (FC)” value (Candida parapsilosis [15]) was 1.81. The “fold change (FC)” value (Candida parapsilosis [16]) was 1.76, the “fold change (FC)” value (Candida parapsilosis [17]) was 1.62 and the “fold change (FC)” value (Candida parapsilosis [18]) was 1.62. The “fold change (FC)” value (Candida parapsilosis [19]) was 1.78, the “fold change (FC)” value (Candida parapsilosis [20]) was 1.89 and the “fold change (FC)” value (Candida parapsilosis [21]) was 1.9. The “fold change (FC)” value (Candida parapsilosis [22]) was 1.7, the “fold change (FC)” value (Candida parapsilosis [23]) was 1.66 and the “fold change (FC)” value (Candida parapsilosis [24]) was 1.68. For the same molecule, the “fold change (FC)” value (Candida parapsilosis [25]) was 1.51, the “fold change (FC)” value (Candida parapsilosis [26]) was 1.55 and the “fold change (FC)” value (Candida parapsilosis [27]) was 2.52. For the same molecule, the “fold change (FC)” value (Candida parapsilosis [28]) was 2.8, the “fold change (FC)” value (Candida parapsilosis [29]) was 1.72 and the “fold change (FC)” value (Candida parapsilosis [30]) was 1.76. The “fold change (FC)” value (Candida parapsilosis [31]) was 1.61, the “fold change (FC)” value (Candida parapsilosis [32]) was 1.61 and the “fold change (FC)” value (Candida parapsilosis [33]) was 1.85. For the same molecule, the “fold change (FC)” value (Candida parapsilosis [34]) was 1.86 and the “fold change (FC)” value (Candida parapsilosis [35]) was 1.6.
